From publication doi:10.1101/2020.06.11.146027
Results are given in words; binding and its absence hold for the method and conditions named. For some assays here: In cells and extracts the contact can be indirect. Some entries that bind do so weakly or less than the wild type.

Amino acid sequences for entries named in this document (tags omitted). Residues count along the entry.
UniProt P07355: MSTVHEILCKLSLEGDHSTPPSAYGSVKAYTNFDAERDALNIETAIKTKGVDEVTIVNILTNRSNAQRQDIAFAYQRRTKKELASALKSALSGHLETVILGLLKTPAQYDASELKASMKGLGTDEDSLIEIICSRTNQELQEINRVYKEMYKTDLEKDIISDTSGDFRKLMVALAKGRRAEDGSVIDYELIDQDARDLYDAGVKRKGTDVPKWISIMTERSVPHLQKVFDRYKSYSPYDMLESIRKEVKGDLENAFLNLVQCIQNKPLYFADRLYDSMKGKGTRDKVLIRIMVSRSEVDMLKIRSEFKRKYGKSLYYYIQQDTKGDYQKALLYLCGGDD
UniProt P19838, residues 1-433: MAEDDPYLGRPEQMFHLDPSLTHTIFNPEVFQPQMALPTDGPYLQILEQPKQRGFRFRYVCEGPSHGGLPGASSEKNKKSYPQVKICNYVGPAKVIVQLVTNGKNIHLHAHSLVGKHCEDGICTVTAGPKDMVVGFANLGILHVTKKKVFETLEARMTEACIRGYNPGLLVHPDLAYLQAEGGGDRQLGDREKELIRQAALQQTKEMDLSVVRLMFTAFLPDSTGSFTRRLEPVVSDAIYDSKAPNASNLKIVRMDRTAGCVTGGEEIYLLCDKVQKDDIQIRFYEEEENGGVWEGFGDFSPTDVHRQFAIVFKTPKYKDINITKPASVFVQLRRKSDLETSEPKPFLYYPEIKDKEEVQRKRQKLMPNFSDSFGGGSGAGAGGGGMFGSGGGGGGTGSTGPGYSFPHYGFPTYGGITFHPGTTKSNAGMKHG

Columns and labels:
[1] = biological target: human recombinant annexin A2 (ANXA2) (human) (UniProt P07355); assay: co-IP
[2] = biological target: annexin A2 (ANXA2), endogenous in A549 cells (human (endogenous in A549)) (UniProt P07355); assay: co-IP

Substance | binding [1] | binding [2]
recombinant NF-κB p50 subunit (from UniProt P19838 1-433) | binds | 
NF-κB p50 subunit, endogenous in A549 cells (from UniProt P19838 1-433) |  | binds
